Changes are numbered by the printed parent chain. Numbers in names are those of the source. Results are given in words; binding and its absence hold for the method and conditions named. Binding seen in cells or lysates may run through a third protein. Some binding calls cover weakened binding; strength is not graded here. Sequences can lack the tags named with a protein. Blank lines part the entries; values can stand above or below the molecule they belong to.
Tests used:
[1] = biological target: T1, full-length FLAG-occludin (human) (UniProt Q16625); test: co-IP; HEK-293 cells transiently transfected with FLAG-occludin, HA-CK2α and myc-CK2β; IP with anti-FLAG M2, blot with anti-HA; lysis buffer 50 mM HEPES, 150 mM NaCl, 300 mM sucrose, 0.05 mM ZnCl2, 0.2% Triton X-100, pH 6.8
T1 sequence: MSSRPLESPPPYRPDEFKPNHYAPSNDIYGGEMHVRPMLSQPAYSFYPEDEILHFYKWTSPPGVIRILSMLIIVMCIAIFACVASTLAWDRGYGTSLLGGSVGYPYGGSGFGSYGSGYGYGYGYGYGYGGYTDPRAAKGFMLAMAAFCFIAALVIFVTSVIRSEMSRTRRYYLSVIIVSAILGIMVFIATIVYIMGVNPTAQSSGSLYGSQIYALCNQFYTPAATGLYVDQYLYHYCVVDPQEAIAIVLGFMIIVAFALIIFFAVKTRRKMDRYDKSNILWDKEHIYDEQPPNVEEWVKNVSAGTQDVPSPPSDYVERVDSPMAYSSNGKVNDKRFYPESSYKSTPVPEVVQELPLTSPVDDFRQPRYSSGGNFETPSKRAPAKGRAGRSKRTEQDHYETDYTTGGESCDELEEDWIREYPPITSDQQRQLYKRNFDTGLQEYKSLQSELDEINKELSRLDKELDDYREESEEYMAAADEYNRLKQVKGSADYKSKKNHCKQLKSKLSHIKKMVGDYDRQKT

Protein sequences, listed by entry. Tags and fused reporters are not part of them. Lines headed by an entry give the natural chain unless they say otherwise; changes in a name come on top.
UniProt Q07157: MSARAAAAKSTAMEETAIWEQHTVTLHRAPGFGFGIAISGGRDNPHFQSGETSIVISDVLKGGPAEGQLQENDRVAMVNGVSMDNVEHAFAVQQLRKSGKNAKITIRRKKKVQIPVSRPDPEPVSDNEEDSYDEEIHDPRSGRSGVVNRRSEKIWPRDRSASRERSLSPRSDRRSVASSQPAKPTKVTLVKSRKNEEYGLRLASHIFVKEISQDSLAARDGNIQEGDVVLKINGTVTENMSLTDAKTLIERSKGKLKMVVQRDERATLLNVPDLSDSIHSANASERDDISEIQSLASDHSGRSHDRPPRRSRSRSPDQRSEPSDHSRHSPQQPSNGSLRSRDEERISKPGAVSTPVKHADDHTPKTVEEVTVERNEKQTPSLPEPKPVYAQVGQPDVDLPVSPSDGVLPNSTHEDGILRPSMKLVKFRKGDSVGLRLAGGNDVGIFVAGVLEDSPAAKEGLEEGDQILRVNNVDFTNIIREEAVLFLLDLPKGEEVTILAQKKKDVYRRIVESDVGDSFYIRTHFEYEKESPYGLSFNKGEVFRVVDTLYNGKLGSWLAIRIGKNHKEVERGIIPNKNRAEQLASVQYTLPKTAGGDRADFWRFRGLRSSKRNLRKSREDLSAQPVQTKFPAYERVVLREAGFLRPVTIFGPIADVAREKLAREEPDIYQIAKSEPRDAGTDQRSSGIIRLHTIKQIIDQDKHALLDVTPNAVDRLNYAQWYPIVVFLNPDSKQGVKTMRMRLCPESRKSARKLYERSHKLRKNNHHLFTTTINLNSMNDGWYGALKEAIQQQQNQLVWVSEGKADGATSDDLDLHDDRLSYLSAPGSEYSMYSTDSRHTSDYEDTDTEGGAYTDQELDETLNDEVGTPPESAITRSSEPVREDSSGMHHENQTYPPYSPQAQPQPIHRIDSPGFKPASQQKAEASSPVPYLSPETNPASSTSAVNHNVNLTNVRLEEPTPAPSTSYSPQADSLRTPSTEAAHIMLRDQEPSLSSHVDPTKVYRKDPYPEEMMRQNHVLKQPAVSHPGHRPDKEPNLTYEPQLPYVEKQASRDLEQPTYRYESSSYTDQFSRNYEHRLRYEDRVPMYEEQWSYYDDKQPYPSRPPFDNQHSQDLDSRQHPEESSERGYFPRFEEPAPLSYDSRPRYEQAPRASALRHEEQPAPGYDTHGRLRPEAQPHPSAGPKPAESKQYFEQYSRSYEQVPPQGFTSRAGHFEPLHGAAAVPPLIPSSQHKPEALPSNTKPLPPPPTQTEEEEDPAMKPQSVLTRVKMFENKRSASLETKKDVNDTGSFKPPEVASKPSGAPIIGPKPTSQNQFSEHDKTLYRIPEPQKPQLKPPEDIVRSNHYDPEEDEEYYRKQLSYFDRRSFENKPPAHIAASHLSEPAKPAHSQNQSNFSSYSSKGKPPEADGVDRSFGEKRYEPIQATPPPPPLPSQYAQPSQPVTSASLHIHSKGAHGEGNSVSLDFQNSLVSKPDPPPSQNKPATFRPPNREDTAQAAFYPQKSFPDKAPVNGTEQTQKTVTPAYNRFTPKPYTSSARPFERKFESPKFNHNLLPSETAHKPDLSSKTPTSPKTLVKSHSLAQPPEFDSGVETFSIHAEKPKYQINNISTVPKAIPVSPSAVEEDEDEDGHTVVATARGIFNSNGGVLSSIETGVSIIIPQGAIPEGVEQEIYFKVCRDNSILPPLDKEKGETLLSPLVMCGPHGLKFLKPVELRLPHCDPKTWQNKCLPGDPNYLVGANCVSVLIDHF
UniProt P68400: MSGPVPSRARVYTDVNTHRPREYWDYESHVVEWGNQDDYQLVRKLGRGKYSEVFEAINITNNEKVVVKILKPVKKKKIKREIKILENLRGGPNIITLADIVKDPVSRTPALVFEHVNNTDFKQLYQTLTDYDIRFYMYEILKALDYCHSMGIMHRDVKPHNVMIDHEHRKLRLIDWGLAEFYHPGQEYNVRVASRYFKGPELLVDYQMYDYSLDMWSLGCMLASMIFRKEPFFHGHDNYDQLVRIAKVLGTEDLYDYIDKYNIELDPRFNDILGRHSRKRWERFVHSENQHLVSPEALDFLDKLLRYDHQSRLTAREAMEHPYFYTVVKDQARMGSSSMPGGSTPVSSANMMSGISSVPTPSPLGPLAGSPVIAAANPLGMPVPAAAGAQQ

[2] = biological target: T2, human occludin wild type, N-terminal fusion with YFP or CFP (human) (UniProt Q16625); test: FRET or BRET; acceptor photobleaching FRET at cell-cell contacts of living co-transfected HEK-293 cells; CFP and YFP fusions; cis-interaction along the cell membrane
T2 sequence: T1 sequence

[3] = biological target: C-terminally CFP tagged human ZO-1 (human) (UniProt Q07157); test: as above
[4] = biological target: T3, endogenous ZO-2 of MDCK C11 cells (canine (endogenous in MDCK C11)) (UniProt Q95168); test: co-IP; MDCK C11 cells transiently transfected with occludin-FLAG3 constructs; endogenous ZO-2 precipitated with anti-ZO-2 and Protein A-Sepharose; blot with anti-FLAG M2; PBS, 0.2% Triton X-100, 1 mM NaVO3, 10 mM NaF
T3 sequence: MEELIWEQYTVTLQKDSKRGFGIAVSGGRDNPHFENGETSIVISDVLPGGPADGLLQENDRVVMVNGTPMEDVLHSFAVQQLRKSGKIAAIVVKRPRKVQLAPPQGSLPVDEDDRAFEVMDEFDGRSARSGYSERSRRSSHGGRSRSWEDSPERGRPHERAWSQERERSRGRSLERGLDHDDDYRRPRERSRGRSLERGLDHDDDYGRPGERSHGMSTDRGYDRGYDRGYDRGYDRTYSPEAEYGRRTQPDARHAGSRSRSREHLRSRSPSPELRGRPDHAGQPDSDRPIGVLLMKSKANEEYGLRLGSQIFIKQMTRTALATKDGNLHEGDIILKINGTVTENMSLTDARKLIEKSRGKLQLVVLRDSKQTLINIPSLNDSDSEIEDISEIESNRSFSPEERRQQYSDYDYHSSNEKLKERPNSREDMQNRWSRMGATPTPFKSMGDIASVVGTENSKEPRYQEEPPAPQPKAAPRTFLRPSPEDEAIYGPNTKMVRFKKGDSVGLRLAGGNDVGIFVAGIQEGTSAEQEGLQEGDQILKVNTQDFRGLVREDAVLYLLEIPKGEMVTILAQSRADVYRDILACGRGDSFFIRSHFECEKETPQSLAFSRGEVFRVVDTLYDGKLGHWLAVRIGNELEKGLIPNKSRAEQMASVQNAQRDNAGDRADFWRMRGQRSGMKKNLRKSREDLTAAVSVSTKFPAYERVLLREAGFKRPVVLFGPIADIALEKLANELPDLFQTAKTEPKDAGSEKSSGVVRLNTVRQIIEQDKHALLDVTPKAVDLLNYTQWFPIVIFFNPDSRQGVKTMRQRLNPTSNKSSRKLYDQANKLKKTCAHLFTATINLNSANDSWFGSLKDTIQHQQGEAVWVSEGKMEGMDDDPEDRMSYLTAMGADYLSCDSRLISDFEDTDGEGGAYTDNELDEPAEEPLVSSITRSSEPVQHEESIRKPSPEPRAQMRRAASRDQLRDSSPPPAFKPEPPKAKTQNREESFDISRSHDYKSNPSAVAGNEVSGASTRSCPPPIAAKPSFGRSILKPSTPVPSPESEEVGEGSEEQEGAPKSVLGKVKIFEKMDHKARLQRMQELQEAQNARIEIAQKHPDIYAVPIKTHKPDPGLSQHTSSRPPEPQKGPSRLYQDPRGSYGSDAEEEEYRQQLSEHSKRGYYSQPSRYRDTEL

[5] = biological target: T4, ZO-2 C-terminally fused with CFP (not stated (plasmids of hZO-2 and cZO-2 are named elsewhere in the paper)) (UniProt Q9UDY2); test: FRET or BRET; acceptor photobleaching FRET at cell-cell contacts of living co-transfected HEK-293 cells; CFP and YFP fusions; cis-interaction along the cell membrane
T4 sequence: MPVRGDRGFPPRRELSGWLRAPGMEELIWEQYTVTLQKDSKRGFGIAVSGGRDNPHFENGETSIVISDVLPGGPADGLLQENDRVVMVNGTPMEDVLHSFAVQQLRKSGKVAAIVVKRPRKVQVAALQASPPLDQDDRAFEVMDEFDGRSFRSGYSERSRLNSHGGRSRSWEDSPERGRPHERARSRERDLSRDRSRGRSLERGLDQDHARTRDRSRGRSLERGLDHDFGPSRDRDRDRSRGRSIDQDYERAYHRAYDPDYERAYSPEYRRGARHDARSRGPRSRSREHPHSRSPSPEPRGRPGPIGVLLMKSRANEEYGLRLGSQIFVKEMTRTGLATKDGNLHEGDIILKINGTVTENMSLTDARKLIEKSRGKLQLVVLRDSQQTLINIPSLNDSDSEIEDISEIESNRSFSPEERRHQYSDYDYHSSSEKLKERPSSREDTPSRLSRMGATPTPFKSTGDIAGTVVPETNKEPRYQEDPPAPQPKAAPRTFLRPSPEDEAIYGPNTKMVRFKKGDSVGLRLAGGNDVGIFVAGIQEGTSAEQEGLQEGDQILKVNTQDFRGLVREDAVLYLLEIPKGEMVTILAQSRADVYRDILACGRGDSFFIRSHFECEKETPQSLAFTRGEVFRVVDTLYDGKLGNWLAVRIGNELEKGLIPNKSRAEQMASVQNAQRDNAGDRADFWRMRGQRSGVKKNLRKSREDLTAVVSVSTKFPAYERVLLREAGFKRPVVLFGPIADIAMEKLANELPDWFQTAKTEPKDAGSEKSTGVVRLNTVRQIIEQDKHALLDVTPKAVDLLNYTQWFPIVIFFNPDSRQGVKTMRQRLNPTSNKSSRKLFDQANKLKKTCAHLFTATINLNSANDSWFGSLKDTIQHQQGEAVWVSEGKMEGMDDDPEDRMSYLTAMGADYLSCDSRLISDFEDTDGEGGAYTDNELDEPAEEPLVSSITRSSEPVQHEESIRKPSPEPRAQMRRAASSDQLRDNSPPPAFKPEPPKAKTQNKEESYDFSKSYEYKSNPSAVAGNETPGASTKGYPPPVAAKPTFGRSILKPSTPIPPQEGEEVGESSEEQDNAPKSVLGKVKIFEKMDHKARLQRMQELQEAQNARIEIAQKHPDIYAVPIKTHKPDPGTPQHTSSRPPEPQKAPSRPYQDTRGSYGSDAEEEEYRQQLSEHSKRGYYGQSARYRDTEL

- binding [1]: binds
Molecule: CK2 (HA-CK2α and myc-CK2β, co-transfected) (from UniProt P68400 1-391; P67870 1-215) (complex)

- binding [2]: binds
- binding [3]: binds
B1: YFP-occludin S408E (protein, UniProt Q16625 1-522)
chain: T1 sequence with S408E

- binding [4]: binds
B2: wildtype Occ-FLAG3 (p3xFLAG-CMV14-occludin) (protein, UniProt Q16625 1-522)
chain: T1 sequence

- binding [4]: binds
B3: Occ-FLAG3 T400A/T404A/S408A (protein, UniProt Q16625 1-522)
chain: T1 sequence with T400A, T404A, S408A

- binding [5]: binds
- binding [3]: binds
B4: human occludin wild type, N-terminal fusion with YFP or CFP (protein, UniProt Q16625 1-522)
chain: T1 sequence

- binding [2]: binds
- binding [5]: binds
- binding [3]: binds
B5: YFP-occludin T400A/T404A/S408A (protein, UniProt Q16625 1-522)
chain: T1 sequence with T400A, T404A, S408A

- binding [2]: binds
- binding [3]: binds
B6: YFP-occludin T400E/T404E/S408E (protein, UniProt Q16625 1-522)
chain: T1 sequence with T400E, T404E, S408E

Reference: PMC3695765
